The values below come from article PMC8533325.

Protein sequences, listed by entry. Tags and fused reporters are not part of them.
UniProt Q06609: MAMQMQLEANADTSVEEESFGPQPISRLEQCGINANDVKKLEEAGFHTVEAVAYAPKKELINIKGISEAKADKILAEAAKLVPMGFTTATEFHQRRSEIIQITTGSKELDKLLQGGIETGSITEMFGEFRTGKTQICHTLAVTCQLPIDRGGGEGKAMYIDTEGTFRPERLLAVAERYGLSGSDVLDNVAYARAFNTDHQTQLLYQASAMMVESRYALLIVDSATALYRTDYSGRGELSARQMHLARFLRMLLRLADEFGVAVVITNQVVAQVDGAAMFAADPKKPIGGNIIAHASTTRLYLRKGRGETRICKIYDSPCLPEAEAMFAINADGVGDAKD
UniProt P09884: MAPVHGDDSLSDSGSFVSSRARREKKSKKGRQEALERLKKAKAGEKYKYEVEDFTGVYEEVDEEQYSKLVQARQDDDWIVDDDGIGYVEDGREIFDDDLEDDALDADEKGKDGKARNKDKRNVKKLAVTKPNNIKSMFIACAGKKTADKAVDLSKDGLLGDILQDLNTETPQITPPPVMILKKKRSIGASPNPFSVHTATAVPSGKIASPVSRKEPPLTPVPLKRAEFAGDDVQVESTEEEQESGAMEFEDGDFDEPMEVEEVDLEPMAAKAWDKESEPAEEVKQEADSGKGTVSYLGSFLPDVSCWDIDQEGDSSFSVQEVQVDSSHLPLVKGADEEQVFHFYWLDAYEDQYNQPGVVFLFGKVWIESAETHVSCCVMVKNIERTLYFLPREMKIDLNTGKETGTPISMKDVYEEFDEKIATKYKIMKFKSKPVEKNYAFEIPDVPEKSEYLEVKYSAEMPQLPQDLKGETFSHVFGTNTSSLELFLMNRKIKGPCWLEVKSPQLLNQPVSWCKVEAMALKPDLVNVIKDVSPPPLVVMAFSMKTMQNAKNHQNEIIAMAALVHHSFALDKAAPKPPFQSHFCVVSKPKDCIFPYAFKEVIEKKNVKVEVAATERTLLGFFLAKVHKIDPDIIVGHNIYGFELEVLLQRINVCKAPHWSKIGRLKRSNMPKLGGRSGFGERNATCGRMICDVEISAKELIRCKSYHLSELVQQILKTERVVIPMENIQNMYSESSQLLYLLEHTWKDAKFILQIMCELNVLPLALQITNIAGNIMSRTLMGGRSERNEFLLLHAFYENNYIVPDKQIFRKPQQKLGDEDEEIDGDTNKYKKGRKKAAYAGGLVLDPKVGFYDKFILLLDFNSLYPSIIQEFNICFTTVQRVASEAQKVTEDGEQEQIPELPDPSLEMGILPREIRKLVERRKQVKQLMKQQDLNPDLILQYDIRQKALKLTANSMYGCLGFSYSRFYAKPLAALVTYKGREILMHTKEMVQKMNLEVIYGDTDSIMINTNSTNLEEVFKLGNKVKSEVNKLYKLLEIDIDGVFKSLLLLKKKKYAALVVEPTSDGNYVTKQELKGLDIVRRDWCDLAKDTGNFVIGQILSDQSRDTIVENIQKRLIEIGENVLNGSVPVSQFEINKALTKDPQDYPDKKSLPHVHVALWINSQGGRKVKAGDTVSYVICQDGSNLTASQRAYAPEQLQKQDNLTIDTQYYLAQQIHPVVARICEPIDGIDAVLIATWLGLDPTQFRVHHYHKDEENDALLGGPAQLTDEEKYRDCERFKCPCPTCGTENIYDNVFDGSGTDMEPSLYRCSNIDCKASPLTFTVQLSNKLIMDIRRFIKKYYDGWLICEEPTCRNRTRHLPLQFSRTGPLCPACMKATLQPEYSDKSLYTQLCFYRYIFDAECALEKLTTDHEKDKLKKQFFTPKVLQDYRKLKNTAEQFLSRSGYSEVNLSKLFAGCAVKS

Read-outs that look alike come from different tables or passages of the source. Results are given in words; binding and its absence hold for the method and conditions named. In cells and extracts the contact can be indirect. Some results given as binding are weak or reduced against the parent protein; the word gives no strength. Where a sequence is shown, tags or fusion partners need not be part of it.

What all share (experiment): co-IP; HEK293T cells co-transfected with Flag-CTC1, HA-TEN1 and WT or mutant Myc-STN1, treated with or without HU (2 mM; 16 h or 24 h); lysis in 0.1% NP-40, 50 mM Tris-HCl pH 7.4, 50 mM NaCl, 2 mM DTT; anti-Myc immunoprecipitation overnight at 4 °C; Western blot
For orientation: A western blot detects proteins with antibodies after separation by electrophoresis.

Assay [1] addresses T1, Myc-STN1 (WT) (human) (UniProt Q9H668).
T1 sequence: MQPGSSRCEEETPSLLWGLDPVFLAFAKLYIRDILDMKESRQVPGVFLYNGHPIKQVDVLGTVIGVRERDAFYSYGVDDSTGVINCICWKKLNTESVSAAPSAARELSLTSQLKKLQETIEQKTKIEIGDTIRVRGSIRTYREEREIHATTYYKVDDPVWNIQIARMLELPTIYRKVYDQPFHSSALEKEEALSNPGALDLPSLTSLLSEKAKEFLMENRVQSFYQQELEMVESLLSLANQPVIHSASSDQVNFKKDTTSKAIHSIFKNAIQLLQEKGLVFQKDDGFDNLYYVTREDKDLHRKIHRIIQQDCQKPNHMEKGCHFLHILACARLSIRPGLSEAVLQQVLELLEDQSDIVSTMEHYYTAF

A further assay concerns the target T2, Myc-STN1 E95G (human) (UniProt Q9H668).
T2 sequence: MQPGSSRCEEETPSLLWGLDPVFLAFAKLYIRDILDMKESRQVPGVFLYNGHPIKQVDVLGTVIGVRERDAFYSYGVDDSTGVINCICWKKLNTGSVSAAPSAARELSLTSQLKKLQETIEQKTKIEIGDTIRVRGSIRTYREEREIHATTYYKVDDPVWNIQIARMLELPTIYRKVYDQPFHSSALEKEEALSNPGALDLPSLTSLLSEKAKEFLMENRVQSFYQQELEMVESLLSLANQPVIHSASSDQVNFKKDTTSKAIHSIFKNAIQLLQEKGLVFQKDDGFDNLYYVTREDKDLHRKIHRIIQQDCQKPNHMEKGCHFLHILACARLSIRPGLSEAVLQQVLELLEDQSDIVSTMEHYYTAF

A further assay has as its target T3, Myc-STN1 S111A (human) (UniProt Q9H668).
T3 sequence: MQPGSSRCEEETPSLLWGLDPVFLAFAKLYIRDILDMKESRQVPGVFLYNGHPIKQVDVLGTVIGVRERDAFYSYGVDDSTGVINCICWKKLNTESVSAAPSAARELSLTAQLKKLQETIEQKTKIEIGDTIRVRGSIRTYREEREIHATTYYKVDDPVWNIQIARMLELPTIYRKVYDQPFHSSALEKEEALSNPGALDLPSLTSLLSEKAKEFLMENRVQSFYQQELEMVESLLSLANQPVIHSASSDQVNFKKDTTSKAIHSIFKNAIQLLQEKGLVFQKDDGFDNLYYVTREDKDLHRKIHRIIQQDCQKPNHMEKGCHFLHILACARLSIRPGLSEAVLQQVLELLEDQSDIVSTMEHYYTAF

The next assay deals with T4, Myc-STN1 T94A (human) (UniProt Q9H668).
T4 sequence: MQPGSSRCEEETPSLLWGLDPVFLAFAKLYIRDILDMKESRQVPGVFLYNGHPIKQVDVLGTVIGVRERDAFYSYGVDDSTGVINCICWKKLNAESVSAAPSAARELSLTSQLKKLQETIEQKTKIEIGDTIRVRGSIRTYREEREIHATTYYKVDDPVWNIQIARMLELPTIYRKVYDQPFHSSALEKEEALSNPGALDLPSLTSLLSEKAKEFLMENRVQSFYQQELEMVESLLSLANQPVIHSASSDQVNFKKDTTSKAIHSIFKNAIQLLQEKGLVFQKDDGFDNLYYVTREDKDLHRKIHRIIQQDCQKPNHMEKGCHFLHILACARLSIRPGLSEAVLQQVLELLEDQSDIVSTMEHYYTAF

Assay [2] has as its target T1, Myc-STN1 (WT) (human). This is another data set of the same source.

For RAD51 (from UniProt Q06609 1-339), the binding result with Myc-STN1 (WT) (human) [1] is given as “binds”.

POLA1 (from UniProt P09884 1-1462): the binding entry in the assay with Myc-STN1 (WT) (human) [1], with Myc-STN1 E95G (human), in the assay with Myc-STN1 S111A (human) and with Myc-STN1 T94A (human) was “binds” each time.

B1: HA-TEN1 (protein, UniProt Q86WV5 1-123)
chain: MMLPKPGTYYLPWEVSAGQVPDGSTLRTFGRLCLYDMIQSRVTLMAQHGSDQHQVLVCTKLVEPFHAQVGSLYIVLGELQHQQDRGSVVKARVLTCVEGMNLPLLEQAIREQRLYKQERGGSQ
With B1, in the assay with Myc-STN1 (WT) (human) [2], the binding result is listed as “binds”.

B2: Flag-CTC1 (protein, UniProt Q2NKJ3 1-1217)
chain: MAAGRAQVPSSEQAWLEDAQVFIQKTLCPAVKEPNVQLTPLVIDCVKTVWLSQGRNQGSTLPLSYSFVSVQDLKTHQRLPCCSHLSWSSSAYQAWAQEAGPNGNPLPREQLLLLGTLTDLSADLEQECRNGSLYVRDNTGVLSCELIDLDLSWLGHLFLFPRWSYLPPARWNSSGEGHLELWDAPVPVFPLTISPGPVTPIPVLYPESASCLLRLRNKLRGVQRNLAGSLVRLSALVKSKQKAYFILSLGRSHPAVTHVSIIVQVPAQLVWHRALRPGTAYVLTELRVSKIRGQRQHVWMTSQSSRLLLLKPECVQELELELEGPLLEADPKPLPMPSNSEDKKDPESLVRYSRLLSYSGAVTGVLNEPAGLYELDGQLGLCLAYQQFRGLRRVMRPGVCLQLQDVHLLQSVGGGTRRPVLAPCLRGAVLLQSFSRQKPGAHSSRQAYGASLYEQLVWERQLGLPLYLWATKALEELACKLCPHVLRHHQFLQHSSPGSPSLGLQLLAPTLDLLAPPGSPVRNAHNEILEEPHHCPLQKYTRLQTPSSFPTLATLKEEGQRKAWASFDPKALLPLPEASYLPSCQLNRRLAWSWLCLLPSAFCPAQVLLGVLVASSHKGCLQLRDQSGSLPCLLLAKHSQPLSDPRLIGCLVRAERFQLIVERDVRSSFPSWKELSMPGFIQKQQARVYVQFFLADALILPVPRPCLHSATPSTPQTDPTGPEGPHLGQSRLFLLCHKEALMKRNFCVPPGASPEVPKPALSFYVLGSWLGGTQRKEGTGWGLPEPQGNDDNDQKVHLIFFGSSVRWFEFLHPGQVYRLIAPGPATPMLFEKDGSSCISRRPLELAGCASCLTVQDNWTLELESSQDIQDVLDANKSLPESSLTDLLSDNFTDSLVSFSAEILSRTLCEPLVASLWMKLGNTGAMRRCVKLTVALETAECEFPPHLDVYIEDPHLPPSLGLLPGARVHFSQLEKRVSRSHNVYCCFRSSTYVQVLSFPPETTISIPLPHIYLAELLQGGQSPFQATASCHIVSVFSLQLFWVCAYCTSICRQGKCTRLGSTCPTQTAISQAIIRLLVEDGTAEAVVTCRNHHVAAALGLCPREWASLLDFVQVPGRVVLQFAGPGAQLESSARVDEPMTMFLWTLCTSPSVLRPIVLSFELERKPSKIVPLEPPRLQRFQCGELPFLTHVNPRLRLSCLSIRESEYSSSLGILASSC
Regarding B2, the binding result in the assay with Myc-STN1 (WT) (human) [2] was “binds”.
